Record: PubChem BioAssay AID1224828 (NIAID, 2016)

Test: 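Knock-downs that increase or decrease LPS-induced p65 nuclear translocation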 (primary screen)
Cell system: mouse RAW264.7 G9 macrophage reporter cells (GFP-p65, Tnf promoter-mCherry)
Reagent: siRNA pool against mouse genes, 100 nM
Time to read-out: 2 days siRNA transfection, then 40 min LPS before fixation
Conditions: LPS (Salmonella minnesota R595) at 10 ng/ml
Measured: 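Microscopy ratio of nuclear to perinuclear-ring GFP-p65 signal, scaled to the plate median; gene score is the average of two replicate robust z-scores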
Scale: p65 translocation robust z-score: higher = more nuclear NF-kappaB p65 after LPS than the plate median; nuclear/cytoplasmic p65 ratio: higher = more nuclear NF-kappaB p65
Hit rule: 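Active if robust z is above 3.3 (negative regulators) or below -1.56, the Tlr4 control median (positive regulators); activity score 50 or more; control wells not called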
Meaning of the calls: active = hit (p65 shift raised or lowered); inactive = no clear change
The deposit covers about 17,000 reagents; below is an unselected part. Over the whole deposit, 762 (4.5%) are marked active. 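Active calls include both raised and lowered p65 entry, mostly lowered; wells with fewer than 50 cells lack a z-score.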 Raw values vary from plate to plate and are shown uncorrected.

Silencing of H2-M10.4 [SID315478366] gave: p65 translocation robust z-score 2.23; nuclear/cytoplasmic p65 ratio, rep 1 = 1.96; nuclear/cytoplasmic p65 ratio, rep 2 = 1.88; low cell count flag enough cells to score; inactive.
After knock-down of Plxna2 [SID315468601], the screen gave p65 translocation robust z-score 1.82; nuclear/cytoplasmic p65 ratio, rep 1 = 1.57; nuclear/cytoplasmic p65 ratio, rep 2 = 1.42; low cell count flag enough cells to score; inactive.
For Atg13 [SID315470920], the entry reads p65 translocation robust z-score -0.16; nuclear/cytoplasmic p65 ratio, rep 1 = 1.52; nuclear/cytoplasmic p65 ratio, rep 2 = 1.88; low cell count flag enough cells to score; inactive.
Hspbp1 [SID315472314] gave p65 translocation robust z-score -0.53; nuclear/cytoplasmic p65 ratio, rep 1 = 1.5; nuclear/cytoplasmic p65 ratio, rep 2 = 1.56; low cell count flag enough cells to score; inactive.
Or4c52 [SID315480437] showed p65 translocation robust z-score 1.06; nuclear/cytoplasmic p65 ratio, rep 1 = 1.69; nuclear/cytoplasmic p65 ratio, rep 2 = 1.63; low cell count flag enough cells to score; inactive.
Kcna6 [SID315467563] gave p65 translocation robust z-score 0.16; nuclear/cytoplasmic p65 ratio, rep 1 = 1.5; nuclear/cytoplasmic p65 ratio, rep 2 = 1.39; low cell count flag enough cells to score; inactive.
Against Ubr3 [SID315473635], the entry reads p65 translocation robust z-score 0.99; nuclear/cytoplasmic p65 ratio, rep 1 = 1.54; nuclear/cytoplasmic p65 ratio, rep 2 = 1.63; low cell count flag enough cells to score; inactive.
Depletion of Slfn1 [SID315469318] came out at: nuclear/cytoplasmic p65 ratio, rep 1 = 1.3; nuclear/cytoplasmic p65 ratio, rep 2 = 1.04; low cell count flag fewer than 50 cells per well; well left out of scoring; inactive.
With knock-down of Rexo2 [SID315476444], the screen gave nuclear/cytoplasmic p65 ratio, rep 1 = 1.49; nuclear/cytoplasmic p65 ratio, rep 2 = 1.37; low cell count flag fewer than 50 cells per well; well left out of scoring; inactive.
With knock-down of Rassf7 [SID315472757], the screen gave p65 translocation robust z-score 0.37; nuclear/cytoplasmic p65 ratio, rep 1 = 1.66; nuclear/cytoplasmic p65 ratio, rep 2 = 1.68; low cell count flag enough cells to score; inactive.
Knock-down of Slit3 [SID315469324] came out at: p65 translocation robust z-score -0.13; nuclear/cytoplasmic p65 ratio, rep 1 = 1.45; nuclear/cytoplasmic p65 ratio, rep 2 = 1.55; low cell count flag enough cells to score; inactive.
After knock-down of Angpt2 [SID315465346], the record shows p65 translocation robust z-score -0.83; nuclear/cytoplasmic p65 ratio, rep 1 = 1.51; nuclear/cytoplasmic p65 ratio, rep 2 = 1.48; low cell count flag enough cells to score; inactive.
Bex2 [SID315465627] gave p65 translocation robust z-score -1.07; nuclear/cytoplasmic p65 ratio, rep 1 = 1.26; nuclear/cytoplasmic p65 ratio, rep 2 = 1.41; low cell count flag enough cells to score; inactive.
Knock-down of Clvs2 [SID315477958] came out at: p65 translocation robust z-score -0.17; nuclear/cytoplasmic p65 ratio, rep 1 = 1.36; nuclear/cytoplasmic p65 ratio, rep 2 = 1.5; low cell count flag enough cells to score; inactive.

Ordered by “p65 translocation robust z-score” (high to low): 3 of the entries above
Or4c52 [SID315480437] | p65 translocation robust z-score: 1.06; nuclear/cytoplasmic p65 ratio, rep 1: 1.69; nuclear/cytoplasmic p65 ratio, rep 2: 1.63; low cell count flag: enough cells to score; activity call: inactive
Ubr3 [SID315473635] | p65 translocation robust z-score: 0.99; nuclear/cytoplasmic p65 ratio, rep 1: 1.54; nuclear/cytoplasmic p65 ratio, rep 2: 1.63; low cell count flag: enough cells to score; activity call: inactive
Kcna6 [SID315467563] | p65 translocation robust z-score: 0.16; nuclear/cytoplasmic p65 ratio, rep 1: 1.5; nuclear/cytoplasmic p65 ratio, rep 2: 1.39; low cell count flag: enough cells to score; activity call: inactive

Continued.
After knock-down of Cyp2c55 [SID315474446] the results were p65 translocation robust z-score -0.53; nuclear/cytoplasmic p65 ratio, rep 1 = 1.39; nuclear/cytoplasmic p65 ratio, rep 2 = 1.32; low cell count flag enough cells to score; inactive.
Silencing of Chrm4 [SID315465967] resulted in: p65 translocation robust z-score -0.07; nuclear/cytoplasmic p65 ratio, rep 1 = 1.47; nuclear/cytoplasmic p65 ratio, rep 2 = 1.36; low cell count flag enough cells to score; inactive.
Against Slc9d1 [SID315479137], the entry reads p65 translocation robust z-score -0.06; nuclear/cytoplasmic p65 ratio, rep 1 = 1.43; nuclear/cytoplasmic p65 ratio, rep 2 = 1.57; low cell count flag enough cells to score; inactive.
Tbrg3 [SID315469591] scored p65 translocation robust z-score 0.44; nuclear/cytoplasmic p65 ratio, rep 1 = 1.35; nuclear/cytoplasmic p65 ratio, rep 2 = 1.3; low cell count flag enough cells to score; inactive.
After knock-down of Rhd [SID315468974] the results were p65 translocation robust z-score 2.03; nuclear/cytoplasmic p65 ratio, rep 1 = 1.73; nuclear/cytoplasmic p65 ratio, rep 2 = 1.87; low cell count flag enough cells to score; inactive.
Ambra1 [SID315478627] scored p65 translocation robust z-score -0.24; nuclear/cytoplasmic p65 ratio, rep 1 = 1.54; nuclear/cytoplasmic p65 ratio, rep 2 = 1.74; low cell count flag enough cells to score; inactive.
After knock-down of Cdc42 [SID315465890], the screen gave p65 translocation robust z-score 0.31; nuclear/cytoplasmic p65 ratio, rep 1 = 1.47; nuclear/cytoplasmic p65 ratio, rep 2 = 1.42; low cell count flag enough cells to score; inactive.
Hnrnpm [SID315475416] scored p65 translocation robust z-score 1.83; nuclear/cytoplasmic p65 ratio, rep 1 = 1.94; nuclear/cytoplasmic p65 ratio, rep 2 = 1.79; low cell count flag enough cells to score; inactive.
Knock-down of Chrdl1 [SID315475825] gave: p65 translocation robust z-score 0.07; nuclear/cytoplasmic p65 ratio, rep 1 = 1.6; nuclear/cytoplasmic p65 ratio, rep 2 = 1.79; low cell count flag enough cells to score; inactive.
With knock-down of Nrtn [SID315468246], the record shows p65 translocation robust z-score -0.82; nuclear/cytoplasmic p65 ratio, rep 1 = 1.34; nuclear/cytoplasmic p65 ratio, rep 2 = 1.31; low cell count flag enough cells to score; inactive.
Against Map6 [SID315468011], the values are p65 translocation robust z-score -2.86; nuclear/cytoplasmic p65 ratio, rep 1 = 1.28; nuclear/cytoplasmic p65 ratio, rep 2 = 1.19; low cell count flag enough cells to score; active.
For Cfap20dc [SID315474971], the entry reads nuclear/cytoplasmic p65 ratio, rep 1 = 1.43; nuclear/cytoplasmic p65 ratio, rep 2 = 1.63; low cell count flag fewer than 50 cells per well; well left out of scoring; inactive.
Silencing of Carnmt1 [SID315472990] gave: p65 translocation robust z-score 0.6; nuclear/cytoplasmic p65 ratio, rep 1 = 1.54; nuclear/cytoplasmic p65 ratio, rep 2 = 1.48; low cell count flag enough cells to score; inactive.
